39 molecules from PubChem BioAssay AID2685 (National Center for Advancing Translational Sciences (NCATS), 2010) can be followed below.

Some of the results follow. These are further read-outs of the screen, such as a control signal, another cell line or another target. No call is given for them. Compounds called inactive in the main read-out are mostly missing here. Potencies come from curve fits of mixed quality, noted in brackets.

The assay can be described thus: qHTS Assay for Lipid Storage Modulators in Drosophila S3 Cells.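 For cell number change: cells counted by Cell Tracker Red CMTPX staining in the red channel.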 Particulars: BODIPY lipid droplet fluorescence, 18-24 h; for cell number change: measured here: cell count max response, cells fed with added oleic acid. Put shortly:
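Drosophila S3 cells got compounds at several concentrations plus oleic acid (400 uM solution). Laser-scanning cytometry with 488 nm excitation read lipid droplets at 500-530 nm and cells at 575-640 nm. Percent activity was relative to 20 uM Triacsin C.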
(In qHTS, concentration-response curves come from the screen itself.)

The mark [1] stands for this setting: measured here: cell number channel AC50, cells fed with added oleic acid.
[2] abbreviates: measured here: lipid fluorescence (Fed channel) AC50, cells fed with added oleic acid.

For orientation: AC50 means the concentration at which the activity in the assay is half-maximal. A higher AC50 goes with activity only at high concentration. `Cc1cc(C)c2c(=O)n(CC(=O)Nc3ccc(Br)c(C)c3)sc2n1`: the cell number change was -68%. Further, the AC50 under setting [1] was 32.6 µM [falling, partial curve, poor fit]. Under setting [2], the AC50 is 29.1 µM [falling, single point]. As for `CCOc1cc(N2CCOCC2)c(OCC)cc1NC(=O)CN1C(=O)NC(Cc2ccccc2)C1=O` (stereo not given), the AC50 under setting [1] is 0.326 µM [falling, partial curve, poor fit] and the AC50 under setting [2] is 0.731 µM [falling, full curve]. Regarding `CC(=O)c1cc2c(cc1NS(=O)(=O)c1ccccc1)OCO2`, the AC50 under setting [1] was 1.16 µM [rising, partial curve] and the AC50 under setting [2] is 1.64 µM [rising, partial curve]. `Cc1cc(=O)[nH]c(=S)n1-c1ccccc1`: the cell number change was -87.1%. In addition, under setting [1], the AC50 was 2.91 µM [falling, partial curve]. Further, under setting [2], the AC50 is 29.1 µM [falling, single point]. Consider `O=C(NCc1ccccc1)c1ccc(S(=O)(=O)NCc2ccco2)cc1`, for which the cell number change was 30.2%.

`COc1ccc2c(c1)c(=O)c(C(=O)c1ccc(F)cc1)cn2CC(=O)Nc1ccc(F)cc1`: the cell number change worked out at 8.17%. Also, under setting [2], the AC50 is 10.3 µM [rising, partial curve, poor fit].

As to `CCOC(=O)CSC(CC)C(=O)Nc1nnc(CC)s1` (stereo not given), the cell number change was -101%. Moreover, under setting [1], the AC50 was 9.2 µM [falling, partial curve]. The AC50 under setting [2] is 23.1 µM [falling, single point]. On to `Cc1ccccc1C(=O)N1CCCN(C(=O)c2ccccc2C)CC1`, for which the cell number change was found to be 1.81%. Further, the AC50 under setting [2] was 25.9 µM [falling, single point]. As for `CN1CCN(S(=O)(=O)c2cccc(C(=O)N(C)Cc3c(F)cccc3Cl)c2)CC1`, the cell number change was -8.67%. Besides, the AC50 under setting [2] is 20.6 µM [rising, single point].

Take `c1ccc(CN2CCC(Nc3ncnc4sccc34)CC2)cc1`: the cell number change came out at 24.8%. The AC50 under setting [1] is 4.11 µM [rising, full curve, poor fit]. The AC50 under setting [2] is 0.231 µM [falling, full curve, poor fit]. For the molecule `Cc1ccc(NC(=S)N2CCCC2)cc1C`, the cell number change is -2.31%. On to `COc1ccc(-n2c(C)cc(C(=O)CN3C(=O)c4ccccc4C3=O)c2C)cc1`, for which the cell number change is -15.9%. In addition, the AC50 under setting [2] was 29.1 µM [falling, single point].

With `Cc1onc(-c2ccccc2)c1C(=O)Nc1ccccc1C#N`, the cell number change came to 19.7%.

On to `Cc1ccc(S(=O)(=O)N2CCC(C(=O)C3C(=O)CCCC3=O)CC2)cc1`, for which the cell number change was -25.1%. Moreover, the AC50 under setting [2] is 5.8 µM [falling, full curve, poor fit]. As to `CC(C1CC1)N(Cc1ccccc1)C(=O)NC(=O)c1ccccc1` (stereo not given), the cell number change was 20.8%.

Consider `CC(C)(C)C1CCC(C(=O)Nc2cccnc2)CC1` (stereo not given), for which the cell number change is -5.65%. Consider `O=C(CCNS(=O)(=O)c1ccc(Br)cc1)N1CCCCCCC1`, for which the cell number change was -27%. Moreover, the AC50 under setting [2] is 23.1 µM [falling, partial curve]. As for `CCN(CC)CCNS(=O)(=O)c1ccc(/C=C/C(=O)O)cc1`, under setting [2], the half-maximal activity concentration (AC50) was 3.26 µM [rising, single point]. Consider `CC(C)CC(=O)NN1CCCCC1`, for which the cell number change was -27.2%. The AC50 under setting [2] is 20.6 µM [falling, partial curve].

`O=C(c1ccc(CN2CCOCC2)cc1)N1CCN(Cc2ccccc2)CC1`: the cell number change came out at 10.8%. In the case of `Cc1noc(/C=C/N(C)C)c1S(=O)(=O)N1CCCC(C(=O)NCc2ccc(F)cc2)C1` (stereo not given), the cell number change was 9.53%. Also, the AC50 under setting [2] was 4.61 µM [rising, full curve, poor fit]. On to `CCCNC(=O)c1ccccc1NC(=O)COc1cccc2c1OC(C)(C)C2`, for which the cell number change was -19.7%. Further, under setting [2], the AC50 is 6.51 µM [rising, single point].

Take `O=C(O)CSc1nnc(-c2ccc(Cl)cc2Cl)n1-c1ccc(Br)cc1`: the cell number change is -26.2%. As to `OCC1(CC2CCCCO2)CCN(Cc2nc3ccccc3[nH]2)CC1` (stereo not given), the cell number change was -17.4%. Further, the AC50 under setting [2] is 0.0058 µM [falling, full curve, poor fit]. Take `C/C(=N\NC(=O)c1c(Cl)cnn1C)c1ccc(NC(=O)c2ccc(Br)o2)cc1`: the cell number change was 53%. For the same molecule, under setting [1], the AC50 is 29.1 µM [rising, single point]. The AC50 under setting [2] is 5.17 µM [falling, partial curve].

In the case of `CCc1nnc(NS(=O)(=O)c2ccc(NC(=S)NC(=O)/C=C/c3ccc([N+](=O)[O-])cc3)cc2)s1`, the cell number change is -2.45%. Also, the AC50 under setting [2] was 7.31 µM [falling, single point].

For the molecule `CCOC(=O)N1CCN(C2CC(=O)N(c3ccccc3)C2=O)CC1` (stereo not given), the cell number change is 0.0646%. As to `O=C(Nc1ccc(N2CCN(C(=O)c3cccs3)CC2)c(Cl)c1)c1ccco1`, the cell number change was found to be 8.12%. Further, the AC50 under setting [2] was 0.731 µM [rising, single point]. Turning to `O=[N+]([O-])c1ccc2nccn2c1`, the cell number change amounted to 4.32%. Moreover, under setting [2], the AC50 was 4.61 µM [rising, single point]. For `NC(=O)c1ccsc1NC(=O)COC(=O)/C=C/c1ccccc1`, the cell number change was -3.04%. Under setting [2], the AC50 is 1.46 µM [rising, partial curve]. `COc1ccc(/C=C/c2onc(C)c2S(=O)(=O)N2CCC(C(=O)N3CCC(C)CC3)CC2)cc1`: the cell number change was -8.66%. Moreover, the AC50 under setting [2] was 0.651 µM [rising, full curve, poor fit]. Take `NS(=O)(=O)c1ccc(CCNC(=O)c2coc3ccccc3c2=O)cc1`: the cell number change turned out to be 2.78%. In addition, the AC50 under setting [2] is 29.1 µM [rising, single point].

Consider `S=c1[nH]nc(COc2cccc3ccccc23)n1Cc1ccccc1`, for which the cell number change was -27.6%. Moreover, under setting [2], the AC50 was 9.2 µM [falling, single point]. Consider `CC(=O)Nc1ccc(N=Nc2c(C)[nH]n(C(N)=S)c2=O)cc1`, for which the cell number change was -34.2%. The AC50 under setting [1] was 8.2 µM [falling, partial curve]. For the same molecule, the AC50 under setting [2] was 6.51 µM [falling, partial curve]. As for `Cc1ccc(C)c(NC(=O)COC(=O)CC2c3ccccc3CCN2S(=O)(=O)c2ccc(F)cc2)c1` (stereo not given), the cell number change was -42.3%. The AC50 under setting [1] is 29.1 µM [falling, single point]. In addition, the AC50 under setting [2] was 0.00517 µM [rising, full curve, poor fit]. As for `CC(C)(C)OC(=O)CNC(=O)c1nc[nH]c1C(=O)N1CCN(C(=O)OC(C)(C)C)CC1`, the cell number change turned out to be 19.8%. As to `O=C(NCCN1CCCCC1)Nc1ccc(F)c(Cl)c1`, the cell number change amounted to 17.6%. Moreover, the AC50 under setting [2] is 1.84 µM [falling, partial curve]. On to `Cc1ccc(C(=O)NNC(=O)c2cc3ccccc3cc2O)cc1`, for which the cell number change is 24.6%. Further, the AC50 under setting [2] is 29.1 µM [rising, single point]. On to `O=C(CC1C(=O)N(c2ccc(F)cc2)C(=O)N1Cc1ccccn1)Nc1ccccc1` (stereo not given), for which the cell number change stood at 40.9%. Also, the AC50 under setting [1] was 25.9 µM [rising, single point].
